According to PubChem BioAssay AID493014 (National Center for Advancing Translational Sciences (NCATS), 2011):
The whole screen tested about 340,000 compounds, of which about 170 (0.05%) were called active. This list was built around the results that the source calls inconclusive (neither active nor inactive); the mix of calls is not that of the screen. The call rests on the fitted dose curve; in most records, active means well fitted inhibition curve with a large enough effect in the signal ratio, with a control signal flat (not every such curve was filed as active); inconclusive means small, poorly fitted or top-dose-only effect, or effect the other way, or a change in a side signal; inactive means flat fitted curve, though single readings scatter; the % refers to the signal ratio. A potency beside an inconclusive call is a rough fit, not a confirmed value.

Assay: qHTS Assay to Find Inhibitors of Chronic Active B-Cell Receptor Signaling;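 on activity change, negative = inhibition: plate controls were basal doxycycline-induced cells for no effect and cells given 10 µM MG132 for full effect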
Details: ABC-DLBCL IkBa-CBG/CBR reporter, luminescence ratio (green luciferase fused to IkBa over red control in TMD8 lymphoma cells), 4 h; activity change, negative = inhibition: at 46.1 µM (top of the series)
How it was run: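 Concentration-response series (up to 46 uM) were applied to TMD8 dual-reporter cells for 4 h at 37C with doxycycline. Green/red ratio, after filter-overlap correction, defined %Activity; red signal alone was normalised to basal cells and zero luminescence.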
Potency means the concentration at half of the fitted maximal effect.

| Compound | Potency | activity change, negative = inhibition |
| --- | --- | --- |
| CCCNC(=O)c1ccc(N2CCC3(CC2)CC(c2ccccc2)=NO3)c(NC(=O)Cc2ccc(F)cc2)c1 | inconclusive: 2 µM [rising, full curve, poor fit] | – |
| CC(C)(C)c1ccc(C(=O)c2c[nH]c(C(=O)NCC3CCCO3)c2)cc1 (stereo unspecified) | – | inactive: -2.31% |
| CCn1c(=O)c(CCC(=O)NCC2CCCO2)c(C)c2c(C)nn(-c3ccccc3)c21 (stereo unspecified) | – | inconclusive: 8.37% |
| Cc1ccc(Cl)cc1N1CCN(C(=O)C2CCN(S(=O)(=O)c3c(C)nn(C)c3C)CC2)CC1 | – | inactive: -0.708% |
| CC(=O)Nc1c(O)nc(SCC(=O)Nc2cccc(C)c2)[nH]c1=O | – | inconclusive: 26% |
| C[C@@H]1NC(=O)N(CCCn2ccnc2)C1=O | – | inconclusive: 6.61% |
| COc1ccc(NC(=O)c2cccc(OS(=O)(=O)N(C)C)c2)cc1 | inconclusive: 31.6 µM [falling, partial curve, poor fit] | – |
| Cc1ccc(N2CC(C(=O)Nc3ccc(S(=O)(=O)Nc4ncccn4)cc3)CC2=O)cc1C (stereo unspecified) | inconclusive: 35.5 µM [falling, single point] | – |
| CCCS(=O)(=O)n1nc(-c2ccc(Br)cc2)cc1N | – | inconclusive: 4.59% |
| Cc1nn(-c2ccccc2)c2sc(-c3nnc(SCC(=O)O)o3)cc12 | – | inconclusive: -16.6% |
| CC1=NN(C(=O)c2ccc(Cl)cc2)C(O)(c2ccccc2)C1 (stereo unspecified) | – | inconclusive: -9.02% |
| C/C(=N\NC(=O)c1nn(C)cc1Br)c1cccc(NC(=O)C2CCCC2)c1 | inconclusive: 35.5 µM [falling, single point] | – |
| Cc1ncoc1C(=O)N1CCc2c([nH]c3ccccc23)C1C1CCCCC1 (stereo unspecified) | – | inconclusive: -10.8% |
| COC(=O)c1ccccc1NC(=O)CN1CCC(C(=O)c2ccc3c(c2)OCCO3)CC1 | – | inconclusive: -11.1% |
| Cc1ccc(N2CCN(c3ccc(C)cc3)C2c2ccncc2)cc1 | – | inconclusive: 1.31% |
| Cc1ccc(NC(=O)c2ccsc2)cc1NS(C)(=O)=O | – | inconclusive: 2.52% |
| CCCCSCCCNC(=O)c1ccc2c(c1)N(CC)C(=O)c1ccccc1S2=O (stereo unspecified) | inconclusive: 35.5 µM [falling, single point] | – |
| Cc1ccc(NC(=S)Nc2cccc3ccccc23)cc1F | – | inconclusive: -13.1% |
| O=C(NCCC(=O)N1CCCC(C(F)(F)F)C1)c1ccccc1Cl (stereo unspecified) | – | inconclusive: -7.54% |
| COC(=O)c1c(NC(=O)Cc2ccccc2)sc2c1C(C(=O)OC)CC2 (stereo unspecified) | – | inconclusive: 3.18% |
| O=C(NNC(=O)C1C2CCC(C2)C1C(=O)O)c1ccc(Br)o1 (stereo unspecified) | inconclusive: 32.6 µM [falling, partial curve, poor fit] | – |
| Cc1ccc(NC(=O)c2cc(S(=O)(=O)NCCC3=CCCCC3)ccc2F)cc1F | inconclusive: 14.6 µM [rising, partial curve, poor fit] | inconclusive: 22.9% |
| Cc1c(C(c2ccc(C(=O)O)cc2)c2c(C)n(C)n(-c3ccccc3)c2=O)c(=O)n(-c2ccccc2)n1C | – | inconclusive: 5.46% |
| CCOC(=O)c1cnc(-c2ccccc2)nc1N(C)C | – | inconclusive: 6.76% |
| CC(C)CCNC(=O)c1ccc(Cl)c(NC(=O)Cc2ccccc2)c1 | – | inconclusive: -1.24% |

| Compound | Potency | activity change, negative = inhibition |
| --- | --- | --- |
| CCC1CCCCN1C(=O)CSc1nc2ncccc2[nH]1 (stereo unspecified) | – | inconclusive: 8.8% |
| Cc1c2ccccc2nc2c(F)c(N(C)C)c(F)c(F)c12 | – | inactive: 7.05% |
| c1ccc(-c2ccccn2)nc1 | – | inactive: 0.979% |
| COc1ccc(NS(=O)(=O)c2cccs2)cc1S(=O)(=O)N1CCOCC1 | – | inactive: -4.36% |
| Cc1cccc(OCC(=O)O/N=C(\N)c2ccccn2)c1 | inconclusive: 25.1 µM [falling, single point] | – |
| CCOC(=O)c1c(OCC)[nH]c2c1cc(O)c1ccccc12 | inconclusive: 35.5 µM [falling, single point] | – |
| CCC(C)N(CCNC(=O)CC1Oc2ccccc2NC1=O)C1CCCCC1 (stereo unspecified) | – | inconclusive: -28.7% |
| Cc1ccn2c(C(=O)CSc3ccc(Cl)cc3)c(C)nc2c1 | – | inconclusive: -12.8% |
| O=C(NCC(c1cccnc1)N1CCN(c2ccc(F)cc2)CC1)c1ccc2c(c1)OCO2 (stereo unspecified) | inconclusive: 6.51 µM [rising, partial curve, poor fit] | – |
| COc1cccc(/C=N/Nc2c(Cl)cncc2Cl)c1O | – | inactive: -0.0781% |
| CSCCC(NC(=O)CCN1C(=O)c2ccccc2C1=O)C(=O)O (stereo unspecified) | – | inconclusive: -19.4% |
| NS(=O)(=O)c1ccc(CCNC(=O)CNS(=O)(=O)c2cccc(Br)c2)cc1 | – | inconclusive: -8.82% |
| COC(=O)CSc1nnc(SCc2ccccc2)s1 | inconclusive: 22.4 µM [falling, single point] | – |
| Cc1cc(C)nc(NC(=O)CSc2nc3cc(Cl)ccc3s2)n1 | – | inconclusive: 28.9% |
| COc1ccccc1OCCC(=O)NCc1ccc2c(c1)OCO2 | inconclusive: 17.8 µM [falling, partial curve, poor fit] | – |
| CCC(=O)Nc1ccc2oc(-c3cccc(C)c3)nc2c1 | – | inconclusive: 4.45% |
| CCCCCc1cc(=O)oc2c(C(CCN3CCCCC3)c3cc(OC)c(OC)c(OC)c3)c(OC)cc(OC)c12 (stereo unspecified) | inconclusive: 22.4 µM [falling, single point] | – |
| CC(C)Cn1cnc2c(=O)oc3ccccc3c21 | inconclusive: 20.6 µM [falling, single point] | – |
| Cc1ccc(-n2ncc3c(NCCCN4CCOCC4)ncnc32)cc1 | inconclusive: 14.1 µM [rising, single point] | – |
| COc1cccc(C(=O)Nc2cccc(NC(=O)c3ccccc3Cl)c2)c1 | – | inconclusive: -2.06% |
| NC(=O)NCCC1=CCCCC1 | – | inactive: 19.8% |
| CCCCn1nc2cc(C(=O)NCC34CC5CC(CC(C5)C3)C4)ccc2c1OC | – | inactive: 1.18% |
| COc1ccc(C(=O)COC(=O)c2ccccc2O)c(OC)c1 | inconclusive: 7.31 µM [falling, partial curve] | – |
| C[C@@H]1CN([C@@H](C)CO)C(=O)c2cc(N(C)C)ccc2O[C@@H]1CN(C)Cc1ccncc1 | – | inconclusive: 1.73% |
| COc1cccc(-n2c(=O)c3c(C)c(C(=O)N(C)C)sc3n(Cc3ccc(F)cc3Cl)c2=O)c1 | – | inactive: 1.78% |

Individual results from the results shown.
Entry for CC(C)Cn1cnc2c(=O)oc3ccccc3c21 under Potency: inconclusive: 20.6 µM [falling, single point]
Entry for CCCCn1nc2cc(C(=O)NCC34CC5CC(CC(C5)C3)C4)ccc2c1OC under activity change, negative = inhibition: inactive: 1.18%
Entry for Cc1ccn2c(C(=O)CSc3ccc(Cl)cc3)c(C)nc2c1 under activity change, negative = inhibition: inconclusive: -12.8%
